# Data taken from the supplement of paper PMC8728848.
# The list shows a part of the results.
# B1: SUN4P (Saccharomyces cerevisiae), P53616 (protein)
# chain: MGSSHHHHHHSSGLVPRGSHNGSIYGDLADFSGPYEKFEDGTIPCGQFPSGQGVIPISWLDEGGWSGVENTDTSTGGSCKEGSYCSYACQPGMSKTQWPSDQPSDGRSIGGLLCKDGYLYRSNTDTDYLCEWGVDAAYVVSELSNDVAICLTDYPGTENMVIPTYVQAGDSLPLTVVDQDTYYTWQGLKTSAQYYVNNAGISVEDACVWGSSSSGVGNWAPLNFGAGSSDGVAYLSLIPNPNNGNALNFNVKIVAADDSSTVNGECIYENGSFSGGSDGCTVSVTAGKAKFVLYN
# Experiments:
# Assay in all cases: glycan array binding signal (z-score within array); higher = stronger binding
# Conditions in all cases: glycan notation: IUPAC condensed, linker removed; mutation: R276L
# [1] = target: Gal(b1-4)GlcNAc(b1-2)[Gal(b1-4)GlcNAc(b1-6)]Man(a1-6)[Gal(b1-4)GlcNAc(b1-2)Man(a1-3)]Man(b1-4)GlcNAc(b1-4)[Fuc(a1-6)]GlcNAc
# Method in brief: (§1)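 Glycan array data were curated from 3228 arrays in the Consortium for Functional Glycomics database and kept only where the protein sequence was available. Glycan names were converted to IUPAC-condensed notation, and columns mapping to the same glycan were averaged. The binding signal is a within-array Z-score, averaged across arrays of the same protein sequence at different concentrations or buffers and across linkers. Negative Z-scores can be read as non-binding.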
# [2] = target: Gal(b1-4)GlcNAc(b1-2)[Gal(b1-4)GlcNAc(b1-6)]Man(a1-6)[GlcNAc(b1-4)][Gal(b1-4)GlcNAc(b1-2)Man(a1-3)]Man(b1-4)GlcNAc(b1-4)GlcNAc
# Method in brief: as §1
# [3] = target: Gal(b1-4)GlcNAc(b1-2)[Gal(b1-4)GlcNAc(b1-6)]Man(a1-6)[GlcNAc(b1-4)][Gal(b1-4)GlcNAc(b1-2)[Gal(b1-4)GlcNAc(b1-4)]Man(a1-3)]Man(b1-4)GlcNAc(b1-4)[Fuc(a1-6)]GlcNAc
# Method in brief: as §1
# [4] = target: Gal(b1-4)GlcNAc(b1-3)Gal(b1-3)GalNAc
# Method in brief: as §1
# [5] = target: Gal(b1-4)GlcNAc(b1-3)Gal(b1-3)GlcNAc
# Method in brief: as §1
# [6] = target: Gal(b1-4)GlcNAc(b1-3)Gal(b1-4)Glc
# Method in brief: as §1
# [7] = target: Gal(b1-4)GlcNAc(b1-3)Gal(b1-4)GlcNAc
# Method in brief: as §1
# [8] = target: Gal(b1-4)GlcNAc(b1-3)Gal(b1-4)GlcNAc(b1-2)Man(a1-3)[Gal(b1-4)GlcNAc(b1-3)Gal(b1-4)GlcNAc(b1-2)Man(a1-6)]Man(b1-4)GlcNAc(b1-4)GlcNAc
# Method in brief: as §1
# [9] = target: Gal(b1-4)GlcNAc(b1-3)Gal(b1-4)GlcNAc(b1-2)Man(a1-3)[Gal(b1-4)GlcNAc(b1-3)Gal(b1-4)GlcNAc(b1-2)Man(a1-6)]Man(b1-4)GlcNAc(b1-4)[Fuc(a1-6)]GlcNAc
# Method in brief: as §1
# [10] = target: Gal(b1-4)GlcNAc(b1-3)Gal(b1-4)GlcNAc(b1-2)[Gal(b1-4)GlcNAc(b1-3)Gal(b1-4)GlcNAc(b1-6)]Man(a1-6)[Gal(b1-4)GlcNAc(b1-3)Gal(b1-4)GlcNAc(b1-2)Man(a1-3)]Man(b1-4)GlcNAc(b1-4)GlcNAc
# Method in brief: as §1
# [11] = target: Gal(b1-4)GlcNAc(b1-3)Gal(b1-4)GlcNAc(b1-2)[Gal(b1-4)GlcNAc(b1-3)Gal(b1-4)GlcNAc(b1-6)]Man(a1-6)[Gal(b1-4)GlcNAc(b1-3)Gal(b1-4)GlcNAc(b1-2)Man(a1-3)]Man(b1-4)GlcNAc(b1-4)[Fuc(a1-6)]GlcNAc
# Method in brief: as §1
# [12] = target: Gal(b1-4)GlcNAc(b1-3)Gal(b1-4)GlcNAc(b1-3)Gal(b1-4)GlcNAc
# Method in brief: as §1
# [13] = target: Gal(b1-4)GlcNAc(b1-3)Gal(b1-4)GlcNAc(b1-3)Gal(b1-4)GlcNAc(b1-2)Man(a1-3)[Gal(b1-4)GlcNAc(b1-3)Gal(b1-4)GlcNAc(b1-3)Gal(b1-4)GlcNAc(b1-2)Man(a1-6)]Man(b1-4)GlcNAc(b1-4)GlcNAc
# Method in brief: as §1
# [14] = target: Gal(b1-4)GlcNAc(b1-3)Gal(b1-4)GlcNAc(b1-3)Gal(b1-4)GlcNAc(b1-2)Man(a1-3)[Gal(b1-4)GlcNAc(b1-3)Gal(b1-4)GlcNAc(b1-3)Gal(b1-4)GlcNAc(b1-2)Man(a1-6)]Man(b1-4)GlcNAc(b1-4)[Fuc(a1-6)]GlcNAc
# Method in brief: as §1
# [15] = target: Gal(b1-4)GlcNAc(b1-3)Gal(b1-4)GlcNAc(b1-3)Gal(b1-4)GlcNAc(b1-2)[Gal(b1-4)GlcNAc(b1-3)Gal(b1-4)GlcNAc(b1-3)Gal(b1-4)GlcNAc(b1-6)]Man(a1-6)[Gal(b1-4)GlcNAc(b1-3)Gal(b1-4)GlcNAc(b1-3)Gal(b1-4)GlcNAc(b1-2)Man(a1-3)]Man(b1-4)GlcNAc(b1-4)[Fuc(a1-6)]GlcNAc
# Method in brief: as §1
# [16] = target: Gal(b1-4)GlcNAc(b1-3)Gal(b1-4)GlcNAc(b1-3)Gal(b1-4)GlcNAc(b1-3)Gal(b1-4)GlcNAc(b1-2)Man(a1-3)[Gal(b1-4)GlcNAc(b1-3)Gal(b1-4)GlcNAc(b1-3)Gal(b1-4)GlcNAc(b1-3)Gal(b1-4)GlcNAc(b1-2)Man(a1-6)]Man(b1-4)GlcNAc(b1-4)GlcNAc
# Method in brief: as §1
# [17] = target: Gal(b1-4)GlcNAc(b1-3)Gal(b1-4)GlcNAc(b1-3)Gal(b1-4)GlcNAc(b1-3)Gal(b1-4)GlcNAc(b1-2)Man(a1-3)[Gal(b1-4)GlcNAc(b1-3)Gal(b1-4)GlcNAc(b1-3)Gal(b1-4)GlcNAc(b1-3)Gal(b1-4)GlcNAc(b1-2)Man(a1-6)]Man(b1-4)GlcNAc(b1-4)[Fuc(a1-6)]GlcNAc
# Method in brief: as §1
# [18] = target: Gal(b1-4)GlcNAc(b1-3)Gal(b1-4)GlcNAc(b1-3)Gal(b1-4)GlcNAc(b1-3)Gal(b1-4)GlcNAc(b1-2)[Gal(b1-4)GlcNAc(b1-3)Gal(b1-4)GlcNAc(b1-3)Gal(b1-4)GlcNAc(b1-3)Gal(b1-4)GlcNAc(b1-6)]Man(a1-6)[Gal(b1-4)GlcNAc(b1-3)Gal(b1-4)GlcNAc(b1-3)Gal(b1-4)GlcNAc(b1-3)Gal(b1-4)GlcNAc(b1-2)Man(a1-3)]Man(b1-4)GlcNAc(b1-4)[Fuc(a1-6)]GlcNAc
# Method in brief: as §1
# [19] = target: Gal(b1-4)GlcNAc(b1-3)Gal(b1-4)GlcNAc(b1-3)Gal(b1-4)GlcNAc(b1-3)Gal(b1-4)GlcNAc(b1-3)Gal(b1-4)GlcNAc(b1-2)Man(a1-3)[Gal(b1-4)GlcNAc(b1-3)Gal(b1-4)GlcNAc(b1-3)Gal(b1-4)GlcNAc(b1-3)Gal(b1-4)GlcNAc(b1-3)Gal(b1-4)GlcNAc(b1-2)Man(a1-6)]Man(b1-4)GlcNAc(b1-4)GlcNAc
# Method in brief: as §1
# [20] = target: Gal(b1-4)GlcNAc(b1-3)Gal(b1-4)GlcNAc(b1-3)Gal(b1-4)GlcNAc(b1-3)Gal(b1-4)GlcNAc(b1-3)Gal(b1-4)GlcNAc(b1-2)Man(a1-3)[Gal(b1-4)GlcNAc(b1-3)Gal(b1-4)GlcNAc(b1-3)Gal(b1-4)GlcNAc(b1-3)Gal(b1-4)GlcNAc(b1-3)Gal(b1-4)GlcNAc(b1-2)Man(a1-6)]Man(b1-4)GlcNAc(b1-4)[Fuc(a1-6)]GlcNAc
# Method in brief: as §1
# [21] = target: Gal(b1-4)GlcNAc(b1-3)Gal(b1-4)GlcNAc(b1-3)Gal(b1-4)GlcNAc(b1-3)Gal(b1-4)GlcNAc(b1-3)Gal(b1-4)GlcNAc(b1-2)[Gal(b1-4)GlcNAc(b1-3)Gal(b1-4)GlcNAc(b1-3)Gal(b1-4)GlcNAc(b1-3)Gal(b1-4)GlcNAc(b1-3)Gal(b1-4)GlcNAc(b1-6)]Man(a1-6)[Gal(b1-4)GlcNAc(b1-3)Gal(b1-4)GlcNAc(b1-3)Gal(b1-4)GlcNAc(b1-3)Gal(b1-4)GlcNAc(b1-3)Gal(b1-4)GlcNAc(b1-2)Man(a1-3)]Man(b1-4)GlcNAc(b1-4)[Fuc(a1-6)]GlcNAc
# Method in brief: as §1
# [22] = target: Gal(b1-4)GlcNAc(b1-3)Gal(b1-4)GlcNAc(b1-3)Gal(b1-4)GlcNAc(b1-3)Gal(b1-4)GlcNAc(b1-3)Gal(b1-4)GlcNAc(b1-3)Gal(b1-4)GlcNAc(b1-2)Man(a1-3)[Gal(b1-4)GlcNAc(b1-3)Gal(b1-4)GlcNAc(b1-3)Gal(b1-4)GlcNAc(b1-3)Gal(b1-4)GlcNAc(b1-3)Gal(b1-4)GlcNAc(b1-3)Gal(b1-4)GlcNAc(b1-2)Man(a1-6)]Man(b1-4)GlcNAc(b1-4)GlcNAc
# Method in brief: as §1
# [23] = target: Gal(b1-4)GlcNAc(b1-3)Gal(b1-4)GlcNAc(b1-3)GalNAc
# Method in brief: as §1
# [24] = target: Gal(b1-4)GlcNAc(b1-3)Gal(b1-4)GlcNAc(b1-3)[Gal(b1-4)GlcNAc(b1-3)Gal(b1-4)GlcNAc(b1-6)]GalNAc
# Method in brief: as §1
# [25] = target: Gal(b1-4)GlcNAc(b1-3)Gal(b1-4)GlcNAc(b1-6)[Gal(b1-3)]GalNAc
# Method in brief: as §1
# [26] = target: Gal(b1-4)GlcNAc(b1-3)Gal(b1-4)[Fuc(a1-3)]GlcNAc(b1-3)Gal(b1-4)[Fuc(a1-3)]GlcNAc
# Method in brief: as §1
# [27] = target: Gal(b1-4)GlcNAc(b1-3)GalNAc
# Method in brief: as §1
# [28] = target: Gal(b1-4)GlcNAc(b1-3)[Fuc(a1-3)GlcNAc(b1-6)]Gal(b1-4)Glc
# Method in brief: as §1
# [29] = target: Gal(b1-4)GlcNAc(b1-3)[Gal(b1-4)GlcNAc(b1-6)]Gal(b1-4)GlcNAc
# Method in brief: as §1
# [30] = target: Gal(b1-4)GlcNAc(b1-3)[GlcNAc(b1-6)]Gal(b1-4)GlcNAc
# Method in brief: as §1
# [31] = target: Gal(b1-4)GlcNAc(b1-6)Gal(b1-4)GlcNAc
# Method in brief: as §1
# [32] = target: Gal(b1-4)GlcNAc(b1-6)GalNAc
# Method in brief: as §1
# [33] = target: Gal(b1-4)GlcNAc(b1-6)[Gal(b1-3)]GalNAc
# Method in brief: as §1
# [34] = target: Gal(b1-4)GlcNAc(b1-6)[Gal(b1-4)GlcNAc(b1-3)]GalNAc
# Method in brief: as §1
# Gal(b1-4)GlcNAc6P = target: Gal(b1-4)GlcNAc6P
# Method in brief: as §1
# Gal(b1-6)Gal = target: Gal(b1-6)Gal
# Method in brief: as §1
# Gal3S(b1-3)GalNAc = target: Gal3S(b1-3)GalNAc
# Method in brief: as §1
# Gal3S(b1-3)GlcNAc = target: Gal3S(b1-3)GlcNAc
# Method in brief: as §1
binder,measurement,setting,value
B1,glycan array binding signal (z-score),[1],0.327
same,glycan array binding signal (z-score),[2],0.11
same,glycan array binding signal (z-score),[3],-0.684
same,glycan array binding signal (z-score),[4],-0.63
same,glycan array binding signal (z-score),[5],-0.369
same,glycan array binding signal (z-score),[6],-0.177
same,glycan array binding signal (z-score),[7],0.623
same,glycan array binding signal (z-score),[8],0.48
same,glycan array binding signal (z-score),[9],0.794
same,glycan array binding signal (z-score),[10],-0.671
same,glycan array binding signal (z-score),[11],-0.371
same,glycan array binding signal (z-score),[12],1.48
same,glycan array binding signal (z-score),[13],0.667
same,glycan array binding signal (z-score),[14],0.956
same,glycan array binding signal (z-score),[15],2.41
same,glycan array binding signal (z-score),[16],-0.935
same,glycan array binding signal (z-score),[17],0.228
same,glycan array binding signal (z-score),[18],0.038
same,glycan array binding signal (z-score),[19],0.176
same,glycan array binding signal (z-score),[20],0.668
same,glycan array binding signal (z-score),[21],1.32
same,glycan array binding signal (z-score),[22],0.388
same,glycan array binding signal (z-score),[23],0.538
same,glycan array binding signal (z-score),[24],1.14
same,glycan array binding signal (z-score),[25],0.709
same,glycan array binding signal (z-score),[26],0.527
same,glycan array binding signal (z-score),[27],0.304
same,glycan array binding signal (z-score),[28],-1.23
same,glycan array binding signal (z-score),[29],-0.922
same,glycan array binding signal (z-score),[30],-0.59
same,glycan array binding signal (z-score),[31],-0.248
same,glycan array binding signal (z-score),[32],-0.068
same,glycan array binding signal (z-score),[33],0.143
same,glycan array binding signal (z-score),[34],0.195
same,glycan array binding signal (z-score),Gal(b1-4)GlcNAc6P,0.505
same,glycan array binding signal (z-score),Gal(b1-6)Gal,-0.764
same,glycan array binding signal (z-score),Gal3S(b1-3)GalNAc,0.37
same,glycan array binding signal (z-score),Gal3S(b1-3)GlcNAc,-0.172

# Rewritten with tabs: entries from further up.
binder	measurement	setting	value
B1	glycan array binding signal (z-score)	[2]	0.11
same	glycan array binding signal (z-score)	[3]	-0.684
same	glycan array binding signal (z-score)	[4]	-0.63
